The nature of this assay: qHTS Assay for Lipid Storage Modulators in Drosophila S3 Cells.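 On cell number change: cells counted by Cell Tracker Red CMTPX staining in the red channel.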 The following applies: BODIPY lipid droplet fluorescence, 18-24 h; for cell number change: measured here: cell count max response, cells fed with added oleic acid. The gist of the method: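 Laser-scanning cytometry quantifies lipid droplet accumulation (500–530 nm total intensity; droplet/cell object ratio) in oleic acid-fed (400 uM added) Drosophila S3 cells treated with a concentration series. 20 uM Triacsin C defined 100% inhibition.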
Background: In qHTS, concentration-response curves come from the screen itself.

Setting [1] is: measured here: lipid fluorescence (Fed channel) AC50, cells fed with added oleic acid.
Where [2] appears, read: measured here: cell number channel AC50, cells fed with added oleic acid.

Molecules are shown by their SMILES. This is one part of the list. Shown are side measurements of this screen, not its main read-out; they come without a call. Compounds called inactive in the main read-out are mostly missing here. Potencies come from curve fits of mixed quality, noted in brackets.

Cell number change and AC50 data for 36 molecules are collected here from PubChem BioAssay AID2685 (National Center for Advancing Translational Sciences (NCATS), 2010).

For `Cn1c(CCC(=O)OCC(=O)NCc2ccc3c(c2)OCO3)nc(=O)c2ccccc21`, the cell number change was determined as 13.5%. For the same molecule, the AC50 under setting [1] is 3260 nM [rising, full curve].

Turning to `COc1cccc(-c2c[nH]c(=O)[nH]c2=O)c1`, the cell number change came to 17.6%. Also, the half-maximal activity concentration (AC50) under setting [1] is 16400 nM [rising, partial curve, poor fit]. As for `CC(C)N(C(C)C)S(=O)(=O)c1ccc(NC(=O)c2cnccn2)cc1`, the cell number change was -21.5%. In addition, under setting [1], the AC50 is 8200 nM [falling, partial curve]. Take `O=C(CCN1C(=O)C2C3CCC(C3)C2C1=O)Nc1ccc([N+](=O)[O-])cc1` (stereo unspecified): the cell number change was -4.46%. Further, the AC50 under setting [2] is 116 nM [falling, single point]. The half-maximal activity concentration (AC50) under setting [1] is 517 nM [falling, partial curve, poor fit]. `Cn1c(=O)c2c(ncn2CC(=O)OCC(=O)Nc2sccc2C(N)=O)n(C)c1=O`: the cell number change is 0.347%. Further, under setting [1], the AC50 was 651 nM [falling, single point]. As to `CCCCCNC(=O)Cn1c(=O)c2c(ncn2CC(C)C)n(Cc2ccccc2)c1=O`, the cell number change is -31.6%. For the same molecule, the half-maximal activity concentration (AC50) under setting [2] is 2590 nM [falling, partial curve, poor fit]. In addition, the AC50 under setting [1] is 5620 nM [falling, single point]. `CCc1nc(SCC(=O)NC2CCCC2)c2oc3ccccc3c2n1`: the cell number change is -23.6%. The half-maximal activity concentration (AC50) under setting [2] was 259 nM [falling, partial curve, poor fit]. `O=C(CCN1CCN(c2ccccc2)CC1)N/N=C/c1ccccc1O`: the cell number change was determined as 7.44%. Take `COc1cc(Nc2c3ccccc3nc3ccccc23)cc(OC)c1OC`: the cell number change was -25.2%. The concentration at half-maximal activity (AC50) under setting [1] was 29100 nM [falling, single point]. With `COc1ccccc1N1CCN(/N=C/c2c(C)nn(-c3ccccc3)c2C)CC1`, the AC50 under setting [2] is 1160 nM [rising, partial curve]. With `CC(C)Oc1ccc(CNC(=O)Cn2c(=O)oc3ccccc32)cc1`, the cell number change was 16.4%. Further, the concentration at half-maximal activity (AC50) under setting [2] was 517 nM [falling, single point]. Under setting [1], the AC50 is 517 nM [falling, single point].

Regarding `CC(C)(C)c1nnc2sc(SCC(=O)c3cccs3)nn2c1=O`, the cell number change worked out at 10.4%. Also, the AC50 under setting [1] is 20600 nM [rising, single point]. For `COc1ccc(NC(=O)CCN2C(=O)c3ccccc3C2=O)c(OC)c1`, the cell number change turned out to be 3.67%.

For the molecule `O=C(CCCSc1nc2ccccc2c(=O)[nH]1)c1ccccc1`, the concentration at half-maximal activity (AC50) under setting [2] is 4.11 nM [rising, full curve, poor fit]. For the molecule `O=C(COc1ccc(Br)cc1Cl)NC(=O)Nc1ccc2c(c1)OCCO2`, the cell number change is 22.3%. Besides, under setting [2], the AC50 is 92 nM [rising, partial curve, poor fit]. As for `CCCCn1c(N)c(N(CCC(C)C)C(=O)CSc2nnc(Nc3ccccc3)s2)c(=O)[nH]c1=O`, the cell number change amounted to 20%. `Cc1nn(Cc2ccc(Cl)cc2)c(C)c1NC(=O)c1noc2c1CCc1ccccc1-2`: the cell number change turned out to be 78.6%. The half-maximal activity concentration (AC50) under setting [2] was 1300 nM [rising, full curve]. Besides, the AC50 under setting [1] is 731 nM [rising, full curve]. For `COc1cccc(CN(C)CC(O)COC(c2ccccc2)c2ccccc2C)c1` (stereo unspecified), the cell number change is 14.5%. Consider `CC(=O)Nc1ccccc1-c1nc2ccc(C(=O)N3CCN(c4cccc(C)c4)C(C)C3)cc2[nH]c1=O` (stereo unspecified), for which the cell number change came out at 8.23%. In addition, the AC50 under setting [1] was 8.2 nM [falling, full curve, poor fit]. For the molecule `COc1ccccc1OCCn1cc(/C=C(\C#N)C(=O)NCc2ccco2)c2ccccc21`, the cell number change is 17.5%. Further, the AC50 under setting [1] was 3660 nM [rising, single point].

Take `O=C(c1cccs1)N1CCN(C(=O)N2CCOCC2)CC1`: the cell number change was -12.2%. Moreover, the AC50 under setting [1] was 32600 nM [falling, partial curve].

`Cc1ccn2c(=O)nc(SCC(=O)N3N=C(c4cccs4)CC3c3ccc(F)cc3)nc2c1` (stereo unspecified): the AC50 under setting [2] was 3260 nM [rising, single point]. In the case of `O=c1[nH]c(Nc2nc3ccccc3o2)nc2c1CCCC2`, the cell number change stood at 11.9%. For the same molecule, the half-maximal activity concentration (AC50) under setting [1] was 5.8 nM [rising, full curve, poor fit]. Turning to `O=C(O)C(Cc1ccccc1)Nc1ccc([N+](=O)[O-])cc1[N+](=O)[O-]` (stereo unspecified), the cell number change stood at 2.7%. As for `Cc1cccc(/C(N)=N/OC(=O)CCCc2ccccc2)c1`, the cell number change is 31.7%. Besides, under setting [2], the concentration at half-maximal activity (AC50) is 411 nM [rising, full curve, poor fit]. Besides, the concentration at half-maximal activity (AC50) under setting [1] is 6510 nM [falling, single point]. Take `CC1(C)Oc2ccc3ccc(=O)oc3c2/C(=C/NNC(N)=O)C1=O`: the cell number change was 9.06%. For the same molecule, the AC50 under setting [1] was 580 nM [falling, single point]. Regarding `CSC1=NCCN1C(=O)c1ccc(S(=O)(=O)N2CCOCC2)cc1`, the cell number change was -30.6%. Besides, the half-maximal activity concentration (AC50) under setting [2] was 29100 nM [falling, single point]. Besides, under setting [1], the half-maximal activity concentration (AC50) is 29100 nM [falling, single point]. Take `O=C(Cc1cccc(NC(=O)C2CCCN(C(=O)C3CCC3)C2)c1)Nc1cccc(C(=O)N2CCCC2)c1` (stereo unspecified): the cell number change is -10.9%. Moreover, the AC50 under setting [2] is 5.17 nM [falling, full curve, poor fit]. Besides, the AC50 under setting [1] was 5.17 nM [falling, full curve, poor fit].

As to `CCN(CC)C(=O)CSc1nnc(-c2ccc(S(=O)(=O)NCc3ccccc3Cl)cc2)o1`, the cell number change was 22%. The AC50 under setting [1] is 3260 nM [falling, single point].

With `COCCCN=C1NN=C(c2cc(C)n(-c3ccccc3F)c2C)CS1`, the AC50 under setting [1] is 6510 nM [rising, single point]. In the case of `C=CCOc1ccc(/C=C/C(=O)OCC(=O)NCC(=O)Nc2c(C)cc(C)cc2C)cc1`, the AC50 was 5800 nM [rising, single point] under setting [2] and 3660 nM [rising, partial curve] under setting [1]. With `CCOC(=O)N1CCC(NC(=O)C(NC(=O)C2CCCCC2)C(C)C)CC1` (stereo unspecified), the cell number change is 4.31%. `CCCCCC(=O)Nc1ccc2oc(-c3cccnc3)nc2c1`: the cell number change amounted to 63.9%. In addition, under setting [2], the concentration at half-maximal activity (AC50) was 29100 nM [rising, partial curve, poor fit]. Besides, the AC50 under setting [1] is 259 nM [rising, full curve]. `Cn1nc([N+](=O)[O-])nc1Oc1ccccc1C(=O)N1CCOCC1`: the cell number change was determined as 5.31%. Moreover, the concentration at half-maximal activity (AC50) under setting [2] is 6510 nM [falling, single point]. As to `CC1=C(C)CC(C(=O)NCCCN2CCCC2=O)C(C(=O)O)C1` (stereo unspecified), the cell number change is -8.61%. In addition, the AC50 under setting [1] is 82 nM [falling, full curve, poor fit]. For `NC(=O)CC(NC(=O)c1ccc(Br)cc1)c1ccc(NC2CCCCCCC2)c([N+](=O)[O-])c1` (stereo unspecified), the cell number change stood at 64.1%. Besides, under setting [2], the half-maximal activity concentration (AC50) was 29100 nM [rising, single point]. The AC50 under setting [1] was 16400 nM [falling, partial curve].

A word on the AC50: it is the concentration giving half of the maximal activity seen. A lower AC50 goes with greater potency.
